Data from PubChem BioAssay AID2551 (National Center for Advancing Translational Sciences (NCATS), 2010).
Out of some 310,000 compounds screened, about 17,000 (5.5%) were called active. This list was built around the results that the source calls inconclusive (neither active nor inactive); the mix of calls is not that of the screen. The call rests on the fitted dose curve; in most records, active means well fitted inhibition curve with a large enough effect; inconclusive means small, poorly fitted or top-dose-only effect, or effect the other way; inactive means no such curve, though single readings can be large or run the other way. Potencies beside an inconclusive call are fits to weak or partial responses and may not hold up.

Chains of the proteins cited; added tags and fusions are not shown. Lines headed by an entry give the natural chain unless they say otherwise; changes in a name come on top.
UniProt P51450: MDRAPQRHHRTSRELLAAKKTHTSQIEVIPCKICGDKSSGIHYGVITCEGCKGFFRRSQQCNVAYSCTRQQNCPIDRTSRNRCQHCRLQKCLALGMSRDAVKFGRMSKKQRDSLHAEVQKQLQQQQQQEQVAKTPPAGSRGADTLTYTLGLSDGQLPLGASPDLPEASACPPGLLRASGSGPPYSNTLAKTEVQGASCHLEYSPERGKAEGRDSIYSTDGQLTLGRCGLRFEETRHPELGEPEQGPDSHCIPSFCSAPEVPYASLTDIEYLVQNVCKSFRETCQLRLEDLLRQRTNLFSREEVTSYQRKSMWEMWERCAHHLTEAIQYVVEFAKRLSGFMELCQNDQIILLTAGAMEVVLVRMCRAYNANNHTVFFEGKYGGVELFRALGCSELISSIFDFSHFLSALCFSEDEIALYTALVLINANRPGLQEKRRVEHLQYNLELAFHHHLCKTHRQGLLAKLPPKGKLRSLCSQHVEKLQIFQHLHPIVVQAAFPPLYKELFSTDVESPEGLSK

Each compound was assayed against Nuclear receptor ROR-gamma (Mus musculus) (UniProt P51450) (assay: qHTS for inhibitors of ROR gamma transcriptional activity). Settings: Drosophila S2 Gal4-RORgamma UAS-luciferase reporter, 20 h; activity change, negative = inhibition: at 53.6 µM (top of the series).
Method in brief: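 Using a luciferase readout, inhibitors were identified by reduced reporter activity in Drosophila cells coexpressing a copper-inducible Gal4–ROR gamma fusion and UAS-driven Photinus luciferase, incubated 20 hr after 700 uM copper sulfate.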
Further: nearly all actives have a fitted effect of over 60% in size.
On the % scale 0 is the no-effect control and ±100 the full control effect; potency means the concentration at half of the fitted maximal effect.

Potency, inconclusive:
CC(=O)c1ccc(-n2c(-c3cc(-c4ccsc4)n[nH]3)n[nH]c2=S)cc1 12.6 µM [inhibitor, partial curve, poor fit]
Cc1cc(/C=C2\SC(=S)N(C)C2=O)c(C)n1-c1ccc(O)cc1 0.251 µM [inhibitor, full curve]
CS(=O)(=O)c1cnc(-c2ccccc2)nc1Oc1ccc(Cl)cc1 31.6 µM [inhibitor, single point]
Cc1occc1C(=O)NNC(=S)NCc1ccc(Cl)cc1 35.5 µM [inhibitor, single point]
COc1ccc(NS(=O)(=O)c2cc(NC(=O)c3cccnc3Cl)ccc2N2CCCC2)cc1 10 µM [inhibitor, partial curve, poor fit]
CC(=O)Nc1ccc(/C=N/NC(=O)c2cccs2)cc1 17.8 µM [inhibitor, single point]
O=[N+]([O-])c1nn(-c2ccc3c(c2)OCCO3)n(O)c1=NC1CCCC1 1.12 µM [activator, partial curve]
Cc1cccc(Cn2cnc3ccccc32)c1 7.94 µM [inhibitor, partial curve, poor fit]
O=C(CN1C(=O)c2ccccc2C1=O)Nc1ccccc1C(=O)NC1CCCCCC1 7.94 µM [activator, partial curve]
O=C(Nc1nc(COc2ccccc2)cs1)C1CCC1 2.82 µM [activator, full curve]
CC1(C)CC(=O)C2=C(C1)OC(N)=C(C#N)C2CCc1ccccc1 (centres undefined) 35.5 µM [activator, single point]
CC1(C)CNC(=O)c2sc(NC(=O)c3ccccc3Cl)nc2C1 8.91 µM [activator, partial curve, poor fit]
CC(C)Nc1nc(Cl)nc(NCCOc2ccccc2)n1 8.91 µM [activator, partial curve]
CC1CCCN(C(=O)c2ccc(S(=O)(=O)Nc3ccccc3Cl)cc2)C1 (centres undefined) 7.94 µM [activator, partial curve]
Cc1nnc(Cl)c2nn(-c3ccccc3F)c(C)c12 3.55 µM [activator, single point]
Cc1ccccc1-n1cnnc1SCC(=O)Nc1cccnc1Cl 35.5 µM [activator, single point]
Cc1ccc(C(=O)O)cc1NC(=O)c1cccs1 35.5 µM [inhibitor, single point]
c1ccc(-c2nn3c(C4CCCCC4)nnc3s2)cc1 35.5 µM [inhibitor, single point]
COc1ccc(CCNC(=O)c2nc(-c3cccs3)no2)cc1OC 14.1 µM [activator, single point]
Cc1ccc(C)c(NS(=O)(=O)c2ccc3oc(=O)ccc3c2)c1 0.794 µM [activator, single point]
COc1cccc(CN2CC(C(=O)NCc3ccc(Cl)s3)CCC2=O)c1 (centres undefined) 35.5 µM [activator, single point]
CC(C)OC(=O)/C(=C/c1ccc2c(c1)c1ccccc1n2C)NC(=O)c1ccccc1 15.8 µM [activator, single point]
COC(=O)c1cc(CSc2nnc(NC3CCCCC3)s2)oc1C 22.4 µM [inhibitor, single point]
COc1ccccc1-c1cc(C(=O)N/N=C\c2cn(C)nc2C)c2ccccc2n1 35.5 µM [inhibitor, single point]
Cc1ccnc(N2CCCC(C(=O)NCc3cccs3)C2)n1 (centres undefined) 11.2 µM [activator, partial curve, poor fit]
Cc1ccccc1-c1nccc(Nc2ccc(F)cc2)n1 20 µM [inhibitor, single point]
Cc1nn(-c2ccccc2)c(C)c1/C=N/NC(=O)c1cc(-c2ccc(Cl)s2)[nH]n1 35.5 µM [activator, single point]
Cc1ccc(C2(c3noc(CN(C)Cc4cccnc4)n3)CCCC2)cc1 14.1 µM [inhibitor, single point]
NC(=S)N=Nc1c(O)n(CC(=O)Nc2ccccc2)c2ccccc12 11.2 µM [inhibitor, single point]
C/C=C\C=C\C(=O)Nc1cccc(C2=NOC3(C2)C[C@@H](C(N)=O)N(C(=O)C(c2ccccc2)c2ccccc2)C3)c1 (some centres undefined) 1 µM [activator, full curve]
COc1cc(OC)c(NS(=O)(=O)c2ccc(Cl)c(C(=O)OC(C)C(=O)N3CCCC3)c2)cc1Cl (centres undefined) 5.01 µM [activator, single point]
COCC(C)n1c(SCC(=O)NC(=O)Nc2ccc3c(c2)OCCO3)nc2ccccc2c1=O (centres undefined) 28.2 µM [inhibitor, single point]
O=C(O)CC12CC3CC(C1)CC(n1ncc(NCc4ccccc4Cl)c(Cl)c1=O)(C3)C2 15.8 µM [activator, partial curve]
COC(=O)c1cc([N+](=O)[O-])c(-n2ccnc2)c([N+](=O)[O-])c1 10 µM [inhibitor, partial curve]
O=c1c2ccccc2nc(SCc2nc(-c3ccccc3)no2)n1-c1ccc(F)cc1 31.6 µM [activator, single point]
CNc1nc(-c2ccccc2CN(C)C)nc2ccccc12 1 µM [inhibitor, partial curve]
O=C1CN(C(=O)COC(=O)CCSc2ccccc2Cl)c2ccccc2N1 35.5 µM [inhibitor, single point]
FC(F)(F)c1ccc(Cl)c(-n2c(-c3cc(C4CC4)[nH]n3)n[nH]c2=S)c1 11.2 µM [inhibitor, single point]

Potency, active:
Cc1ccc(-c2c(C(=O)N/N=C/c3cccs3)nnn2-c2nonc2N)cc1 7.08 µM
CCc1cccc(C)c1NC(=S)NCCc1c(C)[nH]c2ccc(C)cc12 2.24 µM
CC(NC(=S)NC1CCCCC1)C(c1cccs1)N1CCOCC1 (centres undefined) 8.91 µM
COc1ccccc1C(=O)N(CCC1CCCN1C)c1nc2ccccc2s1 (centres undefined) 7.08 µM
CCC(SC1=NCCS1)C(=O)Nc1nnc(-c2ccccc2OC)s1 (centres undefined) 6.31 µM
O=C(Nc1ncnc2sc3c(c12)CCCCC3)c1ccc(F)cc1 7.08 µM
Cc1nc(C(=O)NNC(=O)c2ccc(Cl)cc2)c(C(F)(F)F)o1 11.2 µM
O=C(O)c1cccc(NC2=C(Cl)C(=O)c3ccccc3C2=O)c1 11.2 µM
CC(C)OC(=O)c1ccc(NC(=S)NC(=O)c2cncc(Br)c2)cc1 2.24 µM
CC(C)C[C@H](NC(=O)c1nc[nH]c1C(=O)NCC(=O)OC(C)(C)C)C(=O)OC(C)(C)C 7.08 µM

Activity change, negative = inhibition, inactive:
CCc1nn(C(CC)C(=O)NCCCN2CC(C)CC(C)C2)c(=O)c2cc3oc(C)cc3n12 (centres undefined) -22.9%
COc1cc2c(cc1OC)CN(C(=O)COc1ccc(C)c(C)c1)CC2 14.1%
CC1C(=O)CC2C3(C)CCC2(C(C)C(=O)O)C(=O)C13 (centres undefined) 0.365%
Cc1cccc(N(C(=O)CCC(=O)Nc2cc(C)on2)C(C(=O)NC2CCCC2)c2ccc(C)o2)c1 (centres undefined) 30.8%
O=C(C1=C(O)C(=O)N(CCN2CCOCC2)C1c1ccc(Cl)cc1)c1cc2ccccc2o1 (centres undefined) -10.1%
Clc1ccccc1Nc1nc(-c2ccncc2)nc2ccccc12 0.0363%
COc1ccc2nc(SC)c(C#N)cc2c1 -3.13%
O=C(NCc1ccccn1)C(=O)C1C(=O)Nc2ccccc21 (centres undefined) -3.1%
COc1cccc(OCc2nc3ncc(Br)cc3[nH]2)c1 40.7%
O=C(c1cn(-c2ccccc2)nc1-c1cccc(Br)c1)N1CCOCC1 11.6%
CC(C)CO/N=C1/C[C@@H](O)[C@@H](O)[C@@H]2[C@H]3C(=O)N(c4ccc(F)cc4F)C(=O)[C@@H]3CC[C@H]12 -7.96% [at 10 µM]
O=C(CN1C2=NCCN2c2ccccc21)c1ccc(Br)cc1 -20.7%
COc1ccccc1CCNC(=O)C(=O)NCC1OCCN1S(=O)(=O)c1ccc2c(c1)OCCO2 (centres undefined) -27.3%
CCOCc1[nH]c(=S)[nH]c(=O)c1Cc1ccc(OC(C)C)cc1 -33.3%
CSc1ncccc1C(=O)OCc1ccc(C#N)cc1 -18.3%
O=C(c1ccc(F)cc1)N1CCN=C1c1ccccc1 13.5%
C=CCn1c(=O)/c(=C/c2ccc(Cl)cc2)s/c1=C(/C#N)c1nnc2n1CCCCC2 -14.4%
CC(C)N(C(=O)COC(=O)c1ccc(Cl)c(S(N)(=O)=O)c1)C(C)C -7.31%
CCOC(=O)c1cnc2c(c(C)nn2CC)c1NC1CC1 3.08%
O=C(CCc1ccc(S(=O)(=O)N2CCOCC2)cc1)N/N=C/c1ccc(F)cc1F 13.6%
Cc1ccc(NC(=O)NC(=O)N(C(C)C)S(C)(=O)=O)nc1 26.4% [at 10 µM]
CCOC(=O)c1nnn(-c2ccc(OC)cc2)c1N 2.9%
O=C(CN1CCN(Cc2cccc(Cl)c2)C1=O)NCc1cccs1 18.4%
OCCNC(=S)NCc1ccccc1 10.5%
Cc1cc(NC(=O)NC2CCCN2S(=O)(=O)c2ccc(Cl)cc2)no1 (centres undefined) 2.58% [at 10 µM]
Cc1ccccc1NC(=O)c1ccc(-c2ccc(Cl)cc2Cl)o1 3.42%

Part of the list above in order of molar mass, smallest number first:
Activity change, negative = inhibition, inactive:
CCOCc1[nH]c(=S)[nH]c(=O)c1Cc1ccc(OC(C)C)cc1 -33.3%
COc1cc2c(cc1OC)CN(C(=O)COc1ccc(C)c(C)c1)CC2 14.1%
Cc1cc(NC(=O)NC2CCCN2S(=O)(=O)c2ccc(Cl)cc2)no1 (centres undefined) 2.58% [at 10 µM]
